Laboratory results as given in PubChem BioAssay AID298 (DTP/NCI, 2004).
The list shows only some results of the screen, not a fair sample: it is rich in T/C values a quarter to a half above the control, in often repeated tests (any T/C) and in doses without a T/C. Other doses and runs of a compound stand elsewhere. T/C: endpoint of the treated group in % of that of the vehicle group. Schedule codes are those of the source, read here as Q, the interval in days (D) or hours (H), X, the number of doses. Some entries give survivors of the animals treated and no T/C: the source holds a T/C of zero for them, seemingly a mark for toxic or unscored doses. Counts of survivors are from the toxicity check (mostly the fifth day) where no day follows; animals may have died later. Some entries hold several experiments; their values stand side by side, smallest first.

Test system: MX-1 breast xenograft, intrarenal, nude mice, tumor weight
Assay: NCI In Vivo Anticancer Drug Screen. Data for tumor model Human Mammary Carcinoma MX-1 Xenograft (intrarenal inoculation) in NU/NU BALB/C (nude) mice
Conditions: T/C endpoint: mean tumor weight change, higher T/C = larger tumour; for T/C: evaluated on day 11
Method: The antitumor activity of compounds was measured in mice bearing transplantable tumors. Survival or tumor size were measured and the results are expressed as the measurement made in the treated group (T) divided by the measurement made in the vehicle treated control group (C). The tumor model used in this assay is Human Mammary Carcinoma MX-1 Xenograft (intrarenal inoculation) in NU/NU BALB/C (nude) mice

[1] = dose: 1200.0 mg/kg/injection, schedule: Q04DX003 (sc), vehicle: saline
[2] = dose: 200.0 mg/kg/injection, schedule: Q04DX003 (ip), vehicle: saline with Tween-80
[3] = dose: 400.0 mg/kg/injection, schedule: Q04DX003 (ip), vehicle: saline with Tween-80

SMILES: CCCCCCCC1C(=O)OC2CC3C(C)=CC(=O)C(O)C3(C)C3C4(O)OCC23C1C(C)C4O (stereo not given)
- survivor count (dose: 80.0 mg/kg/injection, schedule: Q04DX003 (ip), vehicle: Klucel (hydroxypropylcellulose) (HPC)): 0 of 6 on day 11

SMILES: CCOC(=O)/C=C/C(=O)N1CCN(C(=O)/C=C/C(=O)OCC)C(C)C1 (stereo not given)
- survivor count (dose: 1200.0 mg/kg/injection, schedule: Q04DX003 (ip), vehicle: Klucel (hydroxypropylcellulose) (HPC)): 0 of 6 on day 11

SMILES: O=NN(CCCl)C(=O)NC1CCCCC1
- survivor count (dose: 64.0 mg/kg/injection, schedule: Q01DX010 (sc), vehicle: saline with Tween-80): 0 of 3 on day 11
- survivor count (dose: 100.0 mg/kg/injection, schedule: Q04DX003 (sc), vehicle: Klucel (hydroxypropylcellulose) (HPC)): 0 of 3 on day 11
- survivor count (dose: 106.65 mg/kg/injection, schedule: Q04DX003 (ip), vehicle: saline with Tween-80): 1 of 3 on day 11
- survivor count (dose: 106.65 mg/kg/injection, schedule: Q04DX003 (sc), vehicle: saline with Tween-80): 1 of 3 on day 11
- survivor count (dose: 213.3 mg/kg/injection, schedule: Q04DX003 (sc), vehicle: saline with Tween-80): 0 of 3 on day 11

SMILES: Nc1nc([Se]c2nc(N)nc3c2ncn3C2OC(CO)C(O)C2O)c2ncn(C3OC(CO)C(O)C3O)c2n1 (stereo not given)
- survivor count (dose: 800.0 mg/kg/injection, schedule: Q04DX003 (ip), vehicle: distilled water + Tween-80): 2 of 6 on day 11

SMILES: NC(=S)N/N=C/c1ccc(O)cn1
- survivor count (dose: 800.0 mg/kg/injection, schedule: Q04DX003 (sc), vehicle: saline with Tween-80): 0 of 6 on day 11

SMILES: CCCCCCCCCCCCCCCCP(=O)(OCCOCCCCCC)OCCOCCCCCC
- survivor count [1]: 0 of 6 on day 11

SMILES: COc1cccc2c1C(=O)c1c(O)c3c(c(O)c1C2=O)C[C@](O)(C(=O)CO)CC3OC1CC(N)C(OC2CCCCO2)C(C)O1 (stereo not given in full)
- survivor count (dose: 15.0 mg/kg/injection, schedule: Q04DX003 (ip), vehicle: water): 1 of 6 on day 11
- survivor count (dose: 30.0 mg/kg/injection, schedule: Q04DX003 (ip), vehicle: water): 0 of 6 on day 11
- survivor count (dose: 60.0 mg/kg/injection, schedule: Q04DX003 (ip), vehicle: water): 0 of 6 on day 11
- survivor count (dose: 75.0 mg/kg/injection, schedule: Q04DX003 (ip), vehicle: water): 0 of 6 on day 11
- survivor count (dose: 150.0 mg/kg/injection, schedule: Q04DX003 (ip), vehicle: water): 0 of 6 on day 11
- survivor count (dose: 300.0 mg/kg/injection, schedule: Q04DX003 (ip), vehicle: water): 0 of 6 on day 11

SMILES: O=C1C=CC2OC(c3ccccc3)C(O)C2O1 (stereo not given)
- T/C (dose: 12.5 mg/kg/injection, schedule: Q04DX003 (ip), vehicle: DMSO): 134 % of control
- survivor count (dose: 100.0 mg/kg/injection, schedule: Q04DX003 (ip), vehicle: DMSO): 2 of 6 on day 11

SMILES: CCC(/C=C/C1OC(=O)C=CC1C)=C\C(C)C/C=C/C(C)=C/C(C)C(=O)C(C)C(O)C(C)C/C(C)=C/C(=O)O (stereo not given)
- T/C (dose: 0.5 mg/kg/injection, schedule: Q04DX003 (ip), vehicle: saline + alcohol): 130 % of control

SMILES: CC(=O)OCC1OC([S-])C(OC(C)=O)C(OC(C)=O)C1OC(C)=O.CC[PH+](CC)CC.CC[PH+](CC)CC.[Au].[Au] (stereo not given)
- T/C (dose: 6.25 mg/kg/injection, schedule: Q04DX003 (ip), vehicle: Klucel (hydroxypropylcellulose) (HPC)): 125 % of control
- survivor count (dose: 25.0 mg/kg/injection, schedule: Q04DX003 (ip), vehicle: Klucel (hydroxypropylcellulose) (HPC)): 0 of 6 on day 11

SMILES: CC(=O)C[n+]1ccccc1Sc1ccc(Cl)cc1
- survivor count [2]: 2 of 6 on day 11

SMILES: Cc1cccc(OCC(O)CN2CC2)c1 (stereo not given)
- survivor count [2]: 2 of 6 on day 11
- survivor count [3]: 0 of 6 on day 11

SMILES: Nc1ncnc2c1ncn2C1OC(CO)C(O)C1O (stereo not given)
- survivor count (dose: 300.0 mg/kg/injection, schedule: Q04DX003 (sc), vehicle: saline): 0 of 6 on day 11

SMILES: NC(Cc1ccc(N(CCCl)Cc2ccccc2)cc1)C(=O)O (stereo not given)
- survivor count [2]: 3 of 6 on day 11
- survivor count [3]: 0 of 6 on day 11 and 3 of 6 on day 11
- survivor count (dose: 555.56 mg/kg/injection, schedule: Q04DX003 (ip), vehicle: saline with Tween-80): 0 of 6 on day 11

SMILES: CO[C@H](/C(C)=C/C=C/C(C)=C/c1coc(C)n1)[C@H](C)[C@H]1C[C@@H](O)[C@@]2(C)O[C@H]2/C=C/[C@@H](C)[C@@H]2C[C@@H](CC(=O)O2)C[C@H]2O[C@@H]2C(=O)O1
- survivor count (dose: 1.0 mg/kg/injection, schedule: Q04DX003 (sc), vehicle: Klucel (hydroxypropylcellulose) (HPC)): 3 of 6 on day 11
- survivor count (dose: 2.0 mg/kg/injection, schedule: Q04DX003 (ip), vehicle: Klucel (hydroxypropylcellulose) (HPC)): 0 of 6 on day 11
- survivor count (dose: 2.0 mg/kg/injection, schedule: Q04DX003 (sc), vehicle: Klucel (hydroxypropylcellulose) (HPC)): 1 of 6 on day 11

SMILES: NC(=O)SCC(N)C(=O)O (stereo not given)
- survivor count (dose: 1100.0 mg/kg/injection, schedule: Q04DX003 (sc), vehicle: saline): 0 of 6 on day 11
- survivor count (dose: 1200.0 mg/kg/injection, schedule: Q04DX003 (ip), vehicle: saline): 1 of 6 on day 11
- survivor count (dose: 1350.0 mg/kg/injection, schedule: Q04DX003 (sc), vehicle: saline): 0 of 6 on day 11
- survivor count (dose: 2400.0 mg/kg/injection, schedule: Q04DX003 (ip), vehicle: saline): 0 of 6 on day 11

SMILES: Cn1cc(NC(=O)c2cc(NC(=O)c3cc(NC=O)cn3C)cn2C)cc1C(=O)NCCC(=N)N
- survivor count (dose: 400.0 mg/kg/injection, schedule: Q04DX003 (ip), vehicle: water): 0 of 6 on day 11
- survivor count (dose: 800.0 mg/kg/injection, schedule: Q04DX003 (ip), vehicle: water): 0 of 6 on day 11

SMILES: O=C1CN(c2ccccc2)C(=O)C1C(=O)Nc1ccc(Cl)c(Cl)c1 (stereo not given)
- survivor count (dose: 480.0 mg/kg/injection, schedule: Q04DX003 (ip), vehicle: saline with Tween-80): 0 of 6 on day 11
- survivor count (dose: 960.0 mg/kg/injection, schedule: Q04DX003 (ip), vehicle: saline with Tween-80): 0 of 6 on day 11

SMILES: CC1(C)OCC2OC=CC(=O)C2O1 (stereo not given)
- survivor count [1]: 0 of 6 on day 11

SMILES: CN(Cc1cnc2nc(N)nc(N)c2n1)c1ccc(C(=O)NC(CCC(=O)OCc2cc3c(cc2Cl)OCO3)C(=O)OCc2cc3c(cc2Cl)OCO3)cc1 (stereo not given)
- survivor count (dose: 15.0 mg/kg/injection, schedule: Q04DX003 (ip), vehicle: saline with Tween-80): 2 of 5 on day 11
- survivor count (dose: 30.0 mg/kg/injection, schedule: Q04DX003 (ip), vehicle: saline with Tween-80): 0 of 5 on day 11
- survivor count (dose: 60.0 mg/kg/injection, schedule: Q04DX003 (ip), vehicle: saline with Tween-80): 0 of 5 on day 11

SMILES: CO[C@@]12[C@H](COC(N)=O)C3=C(C(=O)C(C)=C(N)C3=O)N1C[C@@H]1N[C@@H]12
- survivor count (dose: 12.0 mg/kg/injection, schedule: Q04DX003 (ip), vehicle: suspension in saline): 0 of 6 on day 11
- survivor count (dose: 24.0 mg/kg/injection, schedule: Q04DX003 (ip), vehicle: suspension in saline): 1 of 6 on day 11

SMILES: NC(CS)C(=O)O (stereo not given)
- survivor count (dose: 300.0 mg/kg/injection, schedule: Q04DX003 (ip), vehicle: saline with Tween-80): 1 of 6 on day 11
- survivor count (dose: 600.0 mg/kg/injection, schedule: Q04DX003 (ip), vehicle: saline with Tween-80): 1 of 6 on day 11
- survivor count (dose: 1200.0 mg/kg/injection, schedule: Q04DX003 (ip), vehicle: saline with Tween-80): 0 of 6 on day 11
- survivor count (dose: 2400.0 mg/kg/injection, schedule: Q04DX003 (ip), vehicle: saline with Tween-80): 0 of 6 on day 11

SMILES: O=C(NO)c1ccccc1
- survivor count (dose: 800.0 mg/kg/injection, schedule: Q01DX010 (sc), vehicle: Klucel (hydroxypropylcellulose) (HPC)): 0 of 3 on day 11

SMILES: NC(=O)c1[nH]cnc1O
- survivor count [3]: 3 of 6 on day 11
- survivor count (dose: 800.0 mg/kg/injection, schedule: Q04DX003 (ip), vehicle: saline with Tween-80): 0 of 6 on day 11

SMILES: CN(C)c1nc(N(C)C)nc(N(C)C)n1
- survivor count (dose: 240.0 mg/kg/injection, schedule: Q01DX010 (sc), vehicle: saline with Tween-80): 0 of 2 on day 11
- survivor count (dose: 400.0 mg/kg/injection, schedule: Q01DX010 (sc), vehicle: saline with Tween-80): 0 of 2 on day 11
- survivor count (dose: 600.0 mg/kg/injection, schedule: Q04DX003 (sc), vehicle: saline with Tween-80): 3 of 6 on day 11
